The source of these data is patent US4374139A, “Levorotatory N-substituted acylmorphinans useful as analgesic agents” (priority 1981, dated 1983).

The subject of assay [1] is mice exposed to intra-abdominally induced chemical pain. Kind of assay: animal or person. The following applies: Mus musculus. Format: in vivo. The procedure:
(§1) The ED50 was the dose which reduced the total number of writhes by 50%. […] A modification of the tail flick test described by Dewey and Harris (in: S. Ehrenpreis and A. Neidle (eds.), Methods in Narcotics Research, Marcel Dekker, Inc., New York, 1975, pp. 101-108) was used to measure the tail flick reaction times following oral or subcutaneous administration of the compounds of formula I of the invention.
Doses were calculated as the salts of all the compounds. Injection volume was 0.1 ml/10 g body weight. For each test compound, ED 50 values were calculated separately for each test. Log dose regression analysis and Fieller's Theorem were used to compute the ED 50 and its 95 percent confidence limits. The analysis was performed on the tail flick latency scores of all mice that were treated with a test compound. For any given test, the average tail flick latency score of the vehicle control group was calculated and a latency value, Z, was derived from this, as follows: [formula] where the cutoff time was 10 seconds. […] The value of Z was entered as an interpolate into the regression analysis so that an ED50, defined as the dose that increased tail flick latencies by 50 percent of the maximum possible response, could be computed.

Assay [2] concerns mice exposed to radiant heat stimulus on the tail. Description: animal or person. The following applies: Mus musculus. Format: in vivo, male mice (Charles River, CF-1/CD).
Text: as §1
More specifically, groups of 10 male mice (Charles River, CF-1/CD, 18-22 gm) were placed in individual stainless steel, ventilated, cylindrical restrainers with their tails protruding through a hole at one end. The restraining tubes were positioned on a sliding platform so that each mouse, in turn, could be exposed to a high intensity lamp. The rays from the lamp were focused by means of a parabolic reflector directly on the tail. […] The reaction time of each mouse was determined before and again 30,60,90 and 120 minutes after treatment. […]
Doses were calculated as the salts of all the compounds. […] For each test compound, ED 50 values were calculated separately for each test. […] For any given test, the average tail flick latency score of the vehicle control group was calculated and a latency value, Z, was derived from this, as follows: [formula] where the cutoff time was 10 seconds. […]

Read-outs that look alike come from different tables or passages of the source.

Usually ED50 stands for the dose that gives a 50% effect, or the effect in half of the subjects. `CN1CC[C@]23c4c5ccc(O)c4O[C@H]2[C@@H](O)C=C[C@H]3[C@H]1C5.O=S(=O)(O)O` [Morphine Sulfate, reference compound]: the ED50 was 2.2 mg/kg in assay [1] (po, read-out: ED50 Writhing Oral); 0.26 mg/kg in assay [1] (sc, read-out: ED50 Writhing Subcu.); 26.8 mg/kg in assay [2] (po, read-out: ED50 Tail Flick Oral); 6 mg/kg in assay [2] (sc, read-out: ED50 Tail Flick Subcu.).
